Experimental data taken from patent publication US20250340651A1.
These are yes or no findings as the source states them, for the method shown. Some results given as binding are weak or reduced against the parent protein; the word gives no strength. Each block holds one binder with its values, some of them ahead of it.

Tests used:
[1] = molecular target: T1, Recombinant MICA*01 protein (Homo sapiens (Human)) (UniProt Q29983); assay: ELISA on plate-coated recombinant protein
T1 sequence: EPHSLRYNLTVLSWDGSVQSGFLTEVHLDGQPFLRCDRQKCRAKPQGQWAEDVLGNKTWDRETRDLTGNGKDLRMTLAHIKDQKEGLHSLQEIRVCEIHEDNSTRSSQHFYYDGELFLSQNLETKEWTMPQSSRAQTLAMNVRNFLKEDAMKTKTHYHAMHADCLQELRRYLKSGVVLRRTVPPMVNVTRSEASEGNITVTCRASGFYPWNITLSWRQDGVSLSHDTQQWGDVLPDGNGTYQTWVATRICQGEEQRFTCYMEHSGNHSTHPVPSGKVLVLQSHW

Recombinant MICB protein [2] = molecular target: T2, Recombinant MICB protein (UniProt Q29980); assay: ELISA on plate-coated recombinant protein
T2 sequence (looked up): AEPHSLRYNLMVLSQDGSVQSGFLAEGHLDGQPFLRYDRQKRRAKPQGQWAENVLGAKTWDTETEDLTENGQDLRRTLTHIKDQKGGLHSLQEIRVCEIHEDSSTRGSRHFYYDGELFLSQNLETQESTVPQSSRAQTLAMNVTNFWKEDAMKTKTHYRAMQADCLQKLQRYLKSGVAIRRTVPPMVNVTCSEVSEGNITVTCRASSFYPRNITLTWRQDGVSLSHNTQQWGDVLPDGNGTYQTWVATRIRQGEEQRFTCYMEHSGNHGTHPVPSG

[3] = molecular target: T1, Recombinant MICA*01 protein (Homo sapiens (Human)); assay: ELISA on coated recombinant antigen (1 µg/ml), goat anti-mouse IgG-HRP, OD 450 nm
Recombinant MICB protein [4] = molecular target: T2, Recombinant MICB protein; assay: as above

- binding [1]: binds
- binding (Recombinant MICB protein [2]): binds
- binding [3]: binds
- binding (Recombinant MICB protein [4]): binds
B1: 3F9.E4 (antibody, V domains shown)
VH: EVQLQESGEGLVKPGGSLKLSCAASGFTFSNYAMSWVRQTPEKRLEWVAYISPGGDYIYYADTVKGRFTISRDNARNTLYLQMSSLKSEDTAMYYCTTDRRHYGSYAMDYWGQGISVTVSS
VL: DIVMTQAAPSVPVTPGESVSISCRSSKSLLHSNGNTYLYWFLQRPGQSPQLLIYRMSNLASGVPDRFSGSGSGTAFTLRISRVEAEDVGVYYCMQHLEYPFTFGSGTKLEIK

- binding [1]: binds
- binding (Recombinant MICB protein [2]): binds
- binding [3]: binds
- binding (Recombinant MICB protein [4]): binds
B2: 16F10.C12 (antibody, V domains shown)
VH: EVQLQESGPGLVAPSQSLSITCTVSGFSLTAFGVNWVRQPPGKGLEWLGMIWGDGNTDYNSTLRSRLSISKDNSKSQVFLKLNSLQTDDTARYFCARETYYGNYAGLGYWGQGTLVTVSA
VL: QIVLTQSPAIMSASIGERVTMTCTASSSVSSNYLHWYQQKPRSSPKLWIYTTSNLASGVPTRFSGSGSGTSYSLTISSMEAEDAATYYCHQFHRSPFTFGSGTKLEIK
